Taken from: PubChem BioAssay AID1259405 (NCATS, 2018)
Assay: 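Silenced genes that increase secreted GFP made by CHO cells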 (primary screen). Cells: Chinese hamster CHO-K1 ovary cells with stable secreted eGFP expression. Reagent: single siRNA against mouse genes, 0.8 pmol siRNA per well (2 µl of 400 nM stock). Timing: 3 days. Detection: 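Percent of the per-plate non-targeting control median for intracellular GFP per well by laser scanning cytometry and for cell viability by ATP luminescence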. Reading the numbers: GFP, % of control: higher = more GFP per well, higher productivity; viability (ATP), % of control: higher = more viable cells (more ATP). Active means: 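Called active when intracellular GFP, relative to negative control, is at or above 120%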.
Here is one part, drawn at random, of about 50,000 reagents tested. About 4,000 of all reagents (8%) count as active. 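Mouse siRNA library applied to hamster cells; one well for each siRNA.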 Entries without a mark were called inactive. Reagents against one gene are numbered here.

no.	gene	siRNA no.	GFP, % of control	viability (ATP), % of control
1	Flot1 (GeneID 14251)	1	115	119
2	Flot1 (GeneID 14251)	2	83.3	81.1
3	Evc2 (GeneID 68525)	1	79.7	89.1
4	Evc2 (GeneID 68525)	2	78	83.9
5	Evc2 (GeneID 68525)	3	60.8	68.9
6	Gdap2 (GeneID 14547)	1	115	160
7	Gdap2 (GeneID 14547)	2	79.3	87.6
8	Dact1 (GeneID 59036)	1	64.8	84.8
9	Dact1 (GeneID 59036)	2	54.3	59.5
10	Dact1 (GeneID 59036)	3	87.4	87.1
11	Scoc (GeneID 56367)	1	93.7	99.5
12	Scoc (GeneID 56367)	2	76.6	47.8
13	Scoc (GeneID 56367)	3	134 (active)	70.9
14	Tmem121b (GeneID 94047)	1	72.6	100
15	Tmem121b (GeneID 94047)	2	68.1	76.6
16	Tmem121b (GeneID 94047)	3	94.8	114
17	Nr5a1 (GeneID 26423)	1	85.7	33
18	Nr5a1 (GeneID 26423)	2	74.9	85
19	Nr5a1 (GeneID 26423)	3	71.5	46.2
20	Nudt21 (GeneID 68219)	1	103	89.7
21	Nudt21 (GeneID 68219)	2	71.4	54.4
22	Nudt21 (GeneID 68219)	3	78.1	94.1
23	Pigw (GeneID 70325)	1	85.9	109
24	Pigw (GeneID 70325)	2	64	68.5
25	Pigw (GeneID 70325)	3	84.7	13
26	Ikbke (GeneID 56489)	1	58.7	72.7
27	Ikbke (GeneID 56489)	2	78.8	62.8
28	Ikbke (GeneID 56489)	3	122 (active)	122
29	Slco3a1 (GeneID 108116)	1	55.8	48.8
30	Slco3a1 (GeneID 108116)	2	88.6	73.9
31	Slco3a1 (GeneID 108116)	3	59.4	67.8
32	Mgat5b (GeneID 268510)	1	115	85.4
33	Mgat5b (GeneID 268510)	2	148 (active)	93.4
34	Mgat5b (GeneID 268510)	3	69.8	62
35	Mst1 (GeneID 15235)	1	44.4	68.8
36	Mst1 (GeneID 15235)	2	78.2	72
37	Mst1 (GeneID 15235)	3	54.5	58.4
38	Tdrd1 (GeneID 83561)	1	101	101
39	Tdrd1 (GeneID 83561)	2	89.5	68.6
40	Tdrd1 (GeneID 83561)	3	87.6	82.2

An excerpt from above, limited to “viability (ATP), % of control”:
Nr5a1 (GeneID 26423) #3	46.2
Nudt21 (GeneID 68219) #1	89.7
Nudt21 (GeneID 68219) #2	54.4
Nudt21 (GeneID 68219) #3	94.1
Pigw (GeneID 70325) #1	109
Pigw (GeneID 70325) #2	68.5
Pigw (GeneID 70325) #3	13
Ikbke (GeneID 56489) #1	72.7

Continued:
no.	gene	siRNA no.	GFP, % of control	viability (ATP), % of control
41	Lhx8 (GeneID 16875)	1	54	56.2
42	Lhx8 (GeneID 16875)	2	71.1	72.5
43	Lhx8 (GeneID 16875)	3	75.7	93.9
44	Csrp2 (GeneID 13008)	1	134 (active)	88.2
45	Csrp2 (GeneID 13008)	2	111	110
46	Ndufv3 (GeneID 78330)	1	56.1	61
47	Ndufv3 (GeneID 78330)	2	99.3	66.1
48	Ndufv3 (GeneID 78330)	3	93.2	59
49	Or4c31 (GeneID 258522)	1	55.5	52.3
50	Or4c31 (GeneID 258522)	2	73	71
51	Or4c31 (GeneID 258522)	3	74.4	52.2
52	Nlrp5 (GeneID 23968)	1	69.2	62.3
53	Nlrp5 (GeneID 23968)	2	17	21.9
54	Nlrp5 (GeneID 23968)	3	67.2	42.1
55	Clk2 (GeneID 12748)	1	151 (active)	113
56	Clk2 (GeneID 12748)	2	58.4	65.3
57	Clk2 (GeneID 12748)	3	104	98.6
58	Orai3 (GeneID 269999)	1	71.9	55.3
59	Orai3 (GeneID 269999)	2	97.4	92.3
60	Orai3 (GeneID 269999)	3	73.5	86.5
61	Ist1 (GeneID 71955)	1	69.9	97.1
62	Ist1 (GeneID 71955)	2	41.1	31.5
63	Ist1 (GeneID 71955)	3	65.3	65
64	Or12d13 (GeneID 258830)	1	70.1	61.1
65	Or12d13 (GeneID 258830)	2	85.2	95.9
66	Or12d13 (GeneID 258830)	3	75.6	65.2
67	Cnr2 (GeneID 12802)	1	69.9	73
68	Cnr2 (GeneID 12802)	2	80	87.5
69	Cnr2 (GeneID 12802)	3	72.6	76.9
70	Nelfb (GeneID 58202)	1	102	61.9
71	Nelfb (GeneID 58202)	2	71.8	49.8
72	Nelfb (GeneID 58202)	3	77.5	105
73	Alppl2 (GeneID 11650)	1	109	76.4
74	Alppl2 (GeneID 11650)	2	85.5	73.1
75	Alppl2 (GeneID 11650)	3	81	68.6
76	Rnf144b (GeneID 218215)	1	121 (active)	73.6
77	Rnf144b (GeneID 218215)	2	48.8	63.8
78	Rnf144b (GeneID 218215)	3	89.7	128
79	Pde8a (GeneID 18584)	1	202 (active)	160
80	Pde8a (GeneID 18584)	2	50.2	43.2
81	Pde8a (GeneID 18584)	3	83.7	85.5
82	Tm4sf20 (GeneID 66261)	1	65.6	67.8
83	Tm4sf20 (GeneID 66261)	2	51.5	69.3
84	Tm4sf20 (GeneID 66261)	3	65.2	82.9
85	St3gal5 (GeneID 20454)	1	98.8	89.5
86	St3gal5 (GeneID 20454)	2	88.1	139
87	St3gal5 (GeneID 20454)	3	81.5	92.7
88	Khdrbs1 (GeneID 20218)	1	59.6	96.5
89	Khdrbs1 (GeneID 20218)	2	68.8	61.7
90	Khdrbs1 (GeneID 20218)	3	57.2	62
91	Leng9 (GeneID 243813)	1	40.1	28.2
92	Leng9 (GeneID 243813)	2	81.8	83.8
93	Leng9 (GeneID 243813)	3	72.4	80.5
94	Il13ra2 (GeneID 16165)	1	72.3	52.5
95	Il13ra2 (GeneID 16165)	2	110	66.1
96	Il13ra2 (GeneID 16165)	3	92.7	84.8
97	Cst3 (GeneID 13010)	1	73.2	63.5
98	Cst3 (GeneID 13010)	2	71.2	82.7
99	Cst3 (GeneID 13010)	3	172 (active)	71.9
100	Cst3 (GeneID 13010)	4	97.8	87
101	Cst3 (GeneID 13010)	5	106	85.9
102	Cst3 (GeneID 13010)	6	144 (active)	75.5
103	Dpp8 (GeneID 74388)	1	90.1	66.7
104	Dpp8 (GeneID 74388)	2	55.5	43.2
105	Dpp8 (GeneID 74388)	3	82.2	55.3
106	Keap1 (GeneID 50868)	1	91.6	72.4
107	Keap1 (GeneID 50868)	2	122 (active)	127
